According to patent US11844800B2, “Methods and compositions for predicting and preventing relapse of acute lymphoblastic leukemia” (Massachusetts Institute of Technology, priority 2019, dated 2023):

System: BCR-ABL+ B-cell ALL
Test: Amplicon-based targeted sequencing for known resistance-associated mutations in pretreatment and relapsed animals
Format: in vivo, mice
Conditions: relapsed animals, by treatment arm

Structure (SMILES) | resistance-associated mutations enriched at relapse
Cc1cn(-c2cc(NC(=O)c3ccc(C)c(Nc4nccc(-c5cccnc5)n4)c3)cc(C(F)(F)F)c2)cn1 [Nilotinib, nilotinib] | follow similar trends as ABL001
O=C(Nc1ccc(OC(F)(F)Cl)cc1)c1cnc(N2CC[C@@H](O)C2)c(-c2cc[nH]n2)c1 [ABL001, asciminib] | Pathway reactivating mutations (STAT5 pathway, e.g. ABL1, STAT5A) enrich in relapses
